Assay results: paper PMC8726653
No constants are given. Whether binding was seen depends on the method and setting. Binding seen in cells or lysates may run through a third protein. Some entries that bind do so weakly or less than the wild type.

By UniProt entry, the sequences of proteins in these tests, tags left out.
UniProt O95721: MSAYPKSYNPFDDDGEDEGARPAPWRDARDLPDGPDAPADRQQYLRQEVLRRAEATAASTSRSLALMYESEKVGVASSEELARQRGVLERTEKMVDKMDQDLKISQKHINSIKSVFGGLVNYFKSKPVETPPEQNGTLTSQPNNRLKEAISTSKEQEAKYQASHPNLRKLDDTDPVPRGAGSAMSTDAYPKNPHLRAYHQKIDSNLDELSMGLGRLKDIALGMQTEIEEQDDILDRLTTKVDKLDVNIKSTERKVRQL

Biological target: GFP-SNAP29 (UniProt O95721)
Test: co-IP; cleared lysates of L929 cells stably expressing GFP-SNAP29; untreated, TQ (10 ng/ml TNF + 30 µM QVD) for indicated times, or TQ plus 5 µM GSK'872 or 5 µM necrostatin-1 for 4 h; anti-GFP beads; blot

Binder | binding
VAMP8 (protein, UniProt O70404 1-101) MEEASGSAGNDRVRNLQSEVEGVKNIMTQNVERILSRGENLDHLRNKTEDLEATSEHFKTTSQKVARKFWWKNVKMIVIICVIVLIIVILIILFATGTIPT | binds
STX17 (protein, UniProt Q9D0I4 1-301) MSEDEEKVKLRRLEPAIQKFTKIVIPTDLERLRKHQINIEKYQRCRIWDKLHEEHINAGRTVQQLRSNIREMEKLCLKVHKDDLVLLKRMIDPVKEAAATATAEFLQLHLESVEELKKQVNDEELLQPSLTRSTTVDGVLHTGEAEAASQSLTQIYALPEIPQDQNAAESWETLEADLIELSHLVTDMSLLVSSQQEKIDSIADHVNSAAVNVEEGTKNLQKAAKYKLAALPVAGALIGGVVGGPIGLLAGFKVAGIAAALGGGVLGFTGGKLIQRRKQKMMEKLTSSCPDLPSQSDKKRS | binds
